Measured values published in doi:10.1101/2021.09.23.461563.
These are yes or no findings as the source states them, for the method shown. Some entries that bind do so weakly or less than the wild type. Where a sequence is shown, tags or fusion partners need not be part of it.

Biological target: T1, Untagged ErpQ_(19-343) (Borrelia burgdorferi strain B31) (UniProt Q9S035)
T1 sequence: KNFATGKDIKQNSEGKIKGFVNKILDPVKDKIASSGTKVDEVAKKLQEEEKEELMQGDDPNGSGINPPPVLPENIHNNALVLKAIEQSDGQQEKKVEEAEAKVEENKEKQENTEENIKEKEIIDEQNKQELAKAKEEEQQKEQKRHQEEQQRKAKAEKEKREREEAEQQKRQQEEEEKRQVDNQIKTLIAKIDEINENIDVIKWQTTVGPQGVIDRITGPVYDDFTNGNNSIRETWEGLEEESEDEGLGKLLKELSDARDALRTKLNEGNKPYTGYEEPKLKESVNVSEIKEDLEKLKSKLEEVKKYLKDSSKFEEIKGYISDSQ
Assay: SPR

B1: C1s enzyme (activated form of human C1s) (enzyme, UniProt P09871 16-437; P09871 438-688)
chain 1: EPTMYGEILSPNYPQAYPSEVEKSWDIEVPEGYGIHLYFTHLDIELSENCAYDSVQIISGDTEEGRLCGQRSSNNPHSPIVEEFQVPYNKLQVIFKSDFSNEERFTGFAAYYVATDINECTDFVDVPCSHFCNNFIGGYFCSCPPEYFLHDDMKNCGVNCSGDVFTALIGEIASPNYPKPYPENSRCEYQIRLEKGFQVVVTLRREDFDVEAADSAGNCLDSLVFVAGDRQFGPYCGHGFPGPLNIETKSNALDIIFQTDLTGQKKGWKLRYHGDPMPCPKEDTPNSVWEPAKAKYVFRDVVQITCLDGFEVVEGRVGATSFYSTCQSNGKWSNSKLKCQPVDCGIPESIENGKVEDPESTLFGSVIRYTCEEPYYYMENGGGGEYHCAGNGSWVNEVLGPELPKCVPVCGVPREPFEEKQR
chain 2: IIGGSDADIKNFPWQVFFDNPWAGGALINEYWVLTAAHVVEGNREPTMYVGSTSVQTSRLAKSKMLTPEHVFIHPGWKLLEVPEGRTNFDNDIALVRLKDPVKMGPTVSPICLPGTSSDYNLMDGDLGLISGWGRTEKRDRAVRLKAARLPVAPLRKCKEVKVEKPTADAEAYVFTPNMICAGGEKGMDSCKGDSGGAFAVQDPNDKTKFYAAGLVSWGPQCGTYGLYTRVKNYVDWIMKTMQENSTPRED
With B1 the binding was “binds”.
